Results from article PMC9036047.
Results are given in words; binding and its absence hold for the method and conditions named. In cells and extracts the contact can be indirect. Some results given as binding are weak or reduced against the parent protein; the word gives no strength.

Sequences of proteins named here, by UniProt entry; tags and fusion partners are left off. Residues count along the entry.
UniProt P08908: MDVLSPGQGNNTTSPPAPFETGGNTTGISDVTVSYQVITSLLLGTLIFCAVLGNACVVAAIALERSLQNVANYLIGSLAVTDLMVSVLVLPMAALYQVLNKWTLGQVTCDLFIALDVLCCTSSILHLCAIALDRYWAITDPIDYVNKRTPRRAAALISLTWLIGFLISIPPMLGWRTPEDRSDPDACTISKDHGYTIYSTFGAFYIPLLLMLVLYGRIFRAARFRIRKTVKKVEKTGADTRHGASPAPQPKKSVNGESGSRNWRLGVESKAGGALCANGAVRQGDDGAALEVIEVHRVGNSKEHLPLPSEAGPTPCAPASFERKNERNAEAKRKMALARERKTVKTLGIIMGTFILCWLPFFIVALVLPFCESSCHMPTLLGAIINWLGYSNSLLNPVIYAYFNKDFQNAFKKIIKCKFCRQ
UniProt P37173, residues 23-567: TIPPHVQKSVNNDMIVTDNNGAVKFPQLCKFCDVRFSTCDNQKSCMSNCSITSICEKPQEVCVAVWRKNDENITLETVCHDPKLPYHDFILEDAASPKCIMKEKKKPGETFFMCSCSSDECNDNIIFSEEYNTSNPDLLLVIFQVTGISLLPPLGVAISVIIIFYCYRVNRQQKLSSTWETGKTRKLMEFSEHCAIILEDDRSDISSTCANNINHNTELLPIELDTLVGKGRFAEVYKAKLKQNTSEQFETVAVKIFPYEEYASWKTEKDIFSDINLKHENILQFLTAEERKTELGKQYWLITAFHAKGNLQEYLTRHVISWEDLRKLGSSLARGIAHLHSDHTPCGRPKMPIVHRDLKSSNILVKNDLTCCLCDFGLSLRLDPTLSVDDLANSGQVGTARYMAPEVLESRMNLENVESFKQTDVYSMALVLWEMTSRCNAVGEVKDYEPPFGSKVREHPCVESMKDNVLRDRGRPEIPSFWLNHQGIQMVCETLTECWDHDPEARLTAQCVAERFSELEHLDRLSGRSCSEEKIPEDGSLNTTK
UniProt P51665: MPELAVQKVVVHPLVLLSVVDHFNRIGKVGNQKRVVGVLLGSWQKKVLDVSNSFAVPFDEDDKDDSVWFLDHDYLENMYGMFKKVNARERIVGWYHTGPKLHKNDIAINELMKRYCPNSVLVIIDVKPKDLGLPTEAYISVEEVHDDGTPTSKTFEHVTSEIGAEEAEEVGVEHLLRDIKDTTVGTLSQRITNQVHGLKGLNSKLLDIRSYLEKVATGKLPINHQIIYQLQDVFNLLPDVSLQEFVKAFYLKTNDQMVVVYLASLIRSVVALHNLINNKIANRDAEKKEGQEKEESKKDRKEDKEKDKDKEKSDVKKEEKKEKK
UniProt P19474: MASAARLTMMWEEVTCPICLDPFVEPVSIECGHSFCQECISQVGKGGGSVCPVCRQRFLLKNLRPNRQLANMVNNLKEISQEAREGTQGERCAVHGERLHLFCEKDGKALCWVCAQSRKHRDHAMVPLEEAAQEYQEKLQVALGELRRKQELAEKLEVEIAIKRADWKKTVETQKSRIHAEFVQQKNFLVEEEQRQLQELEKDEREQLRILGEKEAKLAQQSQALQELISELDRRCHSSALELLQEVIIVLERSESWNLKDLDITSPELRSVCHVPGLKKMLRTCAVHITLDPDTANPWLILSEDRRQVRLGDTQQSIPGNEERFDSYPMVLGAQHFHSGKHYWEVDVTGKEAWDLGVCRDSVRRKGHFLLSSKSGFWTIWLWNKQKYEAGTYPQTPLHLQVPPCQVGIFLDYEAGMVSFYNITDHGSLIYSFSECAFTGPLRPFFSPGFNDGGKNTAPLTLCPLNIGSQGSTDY

Key:
[1] = molecular target: 5-hydroxytryptamine receptor 1A (UniProt P08908); experiment: co-IP; 1 x 10^7 cells in IP lysis buffer (20 mM HEPES, 150 mM NaCl, 50 mM KCl, 2 mM MgCl2, 5 mM EDTA pH 8.0, 100 mM NaF, 1% NP40, 10% glycerol); protein A/G magnetic beads with primary antibody or control IgG overnight at 4 °C; western blot
[2] = molecular target: TβRII (UniProt P37173); experiment: as above

Substance	binding [1]	binding [2]
PSMD7 (from UniProt P51665 1-324)	binds	
TRIM21 (from UniProt P19474 1-475) (enzyme)	binds	binds
